This is an account of results in publication PMC11928426.

The chains behind the UniProt entries cited, without tags or fusion partners.
UniProt P35638: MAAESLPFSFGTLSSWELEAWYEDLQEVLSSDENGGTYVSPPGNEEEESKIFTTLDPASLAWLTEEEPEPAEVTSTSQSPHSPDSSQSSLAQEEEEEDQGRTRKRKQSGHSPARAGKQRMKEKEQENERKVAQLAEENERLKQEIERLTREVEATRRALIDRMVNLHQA

For one experiment, the target named is T1, Flag-tagged Nupr1 (UniProt O60356).
T1 sequence: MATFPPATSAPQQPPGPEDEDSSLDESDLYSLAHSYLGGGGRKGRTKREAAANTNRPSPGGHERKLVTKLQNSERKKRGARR
Put plainly: co-IP; lysate of LECs overexpressing Flag-tagged Nupr1 incubated with anti-Flag IP antibody 2 h at room temperature, Protein A/G magnetic beads, Western blot; cells with or without tunicamycin (TU), and TU promoted the interaction. Background: In western blotting, separated proteins are transferred to a membrane and probed.

Experiment [1] deals with C/EBP homologous protein (CHOP) (human (endogenous in HLECs)) (UniProt P35638). The experiment is described as follows: co-IP; lysate of normal LECs incubated with anti-CHOP IP antibody 2 h at room temperature, Protein A/G magnetic beads, Western blot; cells with or without tunicamycin (TU), and TU promoted the interaction.

Results are given in words; binding and its absence hold for the method and conditions named. In cells and extracts the contact can be indirect. Some binding calls cover weakened binding; strength is not graded here. For some assays here: Sequences can lack the tags named with a protein.

For “C/EBP homologous protein (CHOP) (from UniProt P35638 1-169)”, the binding entry with Flag-tagged Nupr1 is “binds”.

B1: Nupr1 (protein, UniProt O60356 1-82)
chain: T1 sequence
For the molecule B1, the binding result in experiment [1] is given as “binds”.
